Several values for one entry are separate records, joined by “and”; a condition that tells them apart may be missing. Equal values may be shown once. Where a name gives a salt, the structure may show the parent alone. The list shows a part of the results. Single values are uncertain here, since repeats match poorly.

This test concerns Brugia pahangi adult female. The test can be described thus: motility inhibition on day 3 relative to DMSO vehicle; higher = more active. Conditions: 10 µM; 3 days.
For `Nc1ncnc2c1ncn2[C@@H]1O[C@H](CO)[C@@H](O)[C@H]1O` [adenosine], the “motility inhibition on day 3” value is below 0%.
For `CC(=O)O[C@@]12CO[C@@H]1C[C@H](O)[C@@]1(C)C(=O)[C@H](O)C3=C(C)[C@@H](OC(=O)[C@H](O)[C@@H](NC(=O)OC(C)(C)C)c4ccccc4)C[C@@](O)([C@@H](OC(=O)c4ccccc4)[C@H]21)C3(C)C` [docetaxel], the “motility inhibition on day 3” value stood at 3.86%.
With `CC(O)C(=O)O.N` (configuration not stated) [ammonium lactate] the figure was 27.3%; with `CN1C(=O)CC(c2ccccc2)C1=O` (configuration not stated) [phensuccimide], 57.7%; with `CC1CNc2c(cccc2S(=O)(=O)N[C@@H](CCCNC(=N)N)C(=O)N2CC[C@@H](C)C[C@@H]2C(=O)O)C1` (some centres not stated), 23.9%.
With `CN(C)CCN(Cc1ccccc1)c1ccccn1` [Tripelennamine hydrochloride] the figure was 39.3%; with `C=CC1=C(C)c2cc3[nH]c(cc4nc(cc5[nH]c(cc1n2)c(C)c5CCC(=O)O)C(CCC(=O)O)=C4C)c(C)c3C=C` [protoporphyrin ix], below 0%; with `CO[C@H]1C[C@@H]2CC[C@@H](C)[C@@](O)(O2)C(=O)C(=O)N2CCCC[C@H]2C(=O)O[C@H]([C@H](C)C[C@@H]2CC[C@@H](OCCO)[C@H](OC)C2)CC(=O)[C@H](C)/C=C(\C)[C@@H](O)[C@@H](OC)C(=O)[C@H](C)C[C@H](C)/C=C/C=C/C=C/1C` [Everolimus], 14.6%.
With `N=C(N)c1ccc(OCCCCCOc2ccc(C(=N)N)cc2)cc1` [Pentamidine isethionate] the figure was 49.6%.
Turning to `O=C(OC[C@H]1O[C@@H](OC(=O)c2cc(O)c(O)c(OC(=O)c3cc(O)c(O)c(O)c3)c2)[C@H](OC(=O)c2cc(O)c(O)c(OC(=O)c3cc(O)c(O)c(O)c3)c2)[C@@H](OC(=O)c2cc(O)c(O)c(OC(=O)c3cc(O)c(O)c(O)c3)c2)[C@@H]1OC(=O)c1cc(O)c(O)c(OC(=O)c2cc(O)c(O)c(O)c2)c1)c1cc(O)c(O)c(OC(=O)c2cc(O)c(O)c(O)c2)c1` [tannic acid], the “motility inhibition on day 3” value came to 29.6%.
With `CCCCC(=O)O[C@H]1CC[C@H]2[C@@H]3CCc4cc(O)ccc4[C@H]3CC[C@]12C` [estradiol valerate] the figure was 5.13%; with `Cc1ccc(Nc2c(F)cccc2Cl)c(CC(=O)O)c1` [lumiracoxib], 22%.
Regarding `Fc1ccc(C(c2ccc(F)cc2)N2CCN(C/C=C/c3ccccc3)CC2)cc1` [Flunarizine dihydrochloride], the “motility inhibition on day 3” value stood at 11.5%.
With `CN1CCc2c(c3ccccc3n2Cc2ccccc2)C1` [mebhydrolin naphthalenesulfonate] the figure was below 0%.
With `Cc1ccc2c(Br)cc(Br)c(OC(=O)c3ccccc3)c2n1` [broxaldine] the figure was 78.7%.
Consider `CN[C@@H]1[C@H](O[C@H]2[C@H](O[C@H]3[C@H](O)[C@@H](O)[C@H](N=C(N)N)[C@@H](O)[C@@H]3N=C(N)N)O[C@@H](C)[C@]2(O)C=O)O[C@@H](CO)[C@H](O)[C@H]1O` [streptomycin sulfate], for which the “motility inhibition on day 3” value is below 0%.
Turning to `Cc1cccc(C(=O)O)c1O` [hydroxytoluic acid], the “motility inhibition on day 3” value was below 0%.
With `COc1cccc2c1C(=O)c1c(O)c3c(c(O)c1C2=O)C[C@@](O)(C(=O)CO)C[C@@H]3O[C@H]1C[C@H](N)[C@H](O)[C@H](C)O1` [doxorubicin] the figure was 24.6%; with `CCC(=O)O[C@@H](O[P@](=O)(CCCCc1ccccc1)CC(=O)N1C[C@H](C2CCCCC2)C[C@H]1C(=O)O)C(C)C` [Fosinopril], 7.77%; with `CC1(C)S[C@@H]2[C@H](NC(=O)[C@H](N)c3ccc(O)cc3)C(=O)N2[C@H]1C(=O)O` [amoxicillin], 6.71%.
With `OCCOCCN1CCN(C2=Nc3ccccc3Sc3ccccc32)CC1` [quetiapine], the “motility inhibition on day 3” value is below 0%.
Turning to `Oc1ncnc2[nH]ncc12` [Allopurinol], the “motility inhibition on day 3” value was below 0%.
On to `C[C@]12CCC(=O)C=C1CC[C@@H]1[C@@H]2[C@@H](O)C[C@@]2(C)[C@H]1CC[C@]2(O)C(=O)CO` [hydrocortisone], for which the “motility inhibition on day 3” value was determined as 29.6%.
For `CCOC(=O)C1=C[C@@H](OC(CC)CC)[C@H](NC(C)=O)[C@@H](N)C1` [Oseltamivir], the “motility inhibition on day 3” value stood at 3.43%.
With `CCOC(=O)C1=C[C@@H](OC(CC)CC)[C@H](NC(C)=O)[C@@H](N)C1` [oseltamivir phosphate] the figure was 33.3%.
With `CNCCCC1c2ccccc2C=Cc2ccccc21` [Protriptyline hydrochloride] the figure was 20.6%.
With `Cc1onc(-c2ccccc2)c1-c1ccc(S(N)(=O)=O)cc1` [valdecoxib] the figure was below 0%.
`CCCc1cc(=O)[nH]c(=S)[nH]1` [propylthiouracil]: the “motility inhibition on day 3” value was below 0%.
With `CN(N=O)C(=O)N[C@H]1C(O)O[C@H](CO)[C@@H](O)[C@@H]1O` (mixture of isomers) [streptozosin] the figure was below 0%.
With `CO/N=C(\C(=O)N[C@@H]1C(=O)N2C(C(=O)OCOC(=O)C(C)(C)C)=C(/C=C\c3scnc3C)CS[C@H]12)c1csc(N)n1` [cefditorin pivoxil] the figure was below 0%.
With `CO/N=C(\C(=O)N[C@@H]1C(=O)N2C(C(=O)OCOC(=O)C(C)(C)C)=C(/C=C\c3scnc3C)CS[C@H]12)c1csc(N)n1` [Cefditoren Pivoxil] the figure was below 0%; with `CC(C)(C(=O)O)c1ccc(C(O)CCCN2CCC(C(O)(c3ccccc3)c3ccccc3)CC2)cc1` (configuration not stated) [fexofenadine hydrochloride], 4.7%.
Turning to `Cc1cc(C(C)(C)C)c(O)c(C)c1CC1=NCCN1` [Oxymetazoline hydrochloride], the “motility inhibition on day 3” value worked out at 18.7%.
For `CN(C)CCCN1c2ccccc2Sc2ccccc21` [promazine hydrochloride], the “motility inhibition on day 3” value came to 37.1%.
In the case of `C[N+]1(C)[C@@H]2C[C@@H](OC(=O)C(O)(c3cccs3)c3cccs3)C[C@H]1[C@@H]1O[C@@H]12` [Tiotropium Bromide], the “motility inhibition on day 3” value was below 0%.
With `C[C@H]1COc2c(C3(N)CC3)c(F)cc3c(=O)c(C(=O)O)cn1c23` [pazufloxacin mesylate] the figure was 20.6%; with `CC(C(=O)O)c1ccc2c(c1)Cc1cccnc1O2` (configuration not stated) [pranoprofen], 2.29%.
With `CSc1ccc2c(c1)C(N1CCN(C)CC1)Cc1ccccc1S2` (configuration not stated) [Methiothepin mesylate] the figure was 23%; with `CC(=O)Nc1ccccc1` [acetanilide], 2.6%.
Take `COC(=O)C1=C(C)NC(C)=C(C(=O)OCCN2CCN(C(c3ccccc3)c3ccccc3)CC2)C1c1cccc([N+](=O)[O-])c1` (configuration not stated) [manidipine hydrochloride]: the “motility inhibition on day 3” value was determined as 14.7%.
With `Cc1c(C)c2c(c(C)c1O)CCC(C)(COc1ccc(CC3SC(=O)NC3=O)cc1)O2` (configuration not stated) [Troglitazone] the figure was 14.5%; with `C[N+]1(C)[C@@H]2CC[C@H]1C[C@@H](OC(=O)C(O)c1ccccc1)C2` (some centres not stated) [homatropine methylbromide], 16.2%.
With `NCCNCCNCCNCCN` [Tetraethylenepentamine pentahydrochloride] the figure was 7.57%; with `Cc1cc2c(cc1S(N)(=O)=O)S(=O)(=O)CCC2` [meticrane], below 0%.
With `CCCCCCc1ccc(O)cc1O.Nc1c2ccccc2nc2ccccc12` [acrisorcin] the figure was 20.8%; with `COC(=O)Nc1nc2cc(C(=O)c3ccccc3)ccc2[nH]1` [mebendazole], 5.6%; with `CCCCCCCCCc1ccc(OCCOCCOCCOCCOCCOCCOCCOCCOCCO)cc1` [nonoxynol-9], 88.7%.
Take `NC(=O)c1cc[n+](CC2=C(C(=O)O)N3C(=O)[C@@H](NC(=O)[C@@H](c4ccccc4)S(=O)(=O)[O-])[C@H]3SC2)cc1` [cefsulodin sodium]: the “motility inhibition on day 3” value came out at 12.9%.
In the case of `CC1(C)S[C@@H]2[C@H](NC(=O)[C@H](NC(=O)N3CCNC3=O)c3ccccc3)C(=O)N2[C@H]1C(=O)O` [azlocillin sodium], the “motility inhibition on day 3” value amounted to 13.9%.
With `CCOC(=O)[C@H](CCc1ccccc1)N[C@@H](C)C(=O)N1Cc2ccccc2C[C@H]1C(=O)O` [quinapril hydrochloride] the figure was below 0%; with `CC(CCc1ccccc1)NCC(O)c1ccc(O)c(C(N)=O)c1` (configuration not stated) [labetalol hydrochloride], 1.53%; with `CC1CC(OC(=O)C(O)c2ccccc2)CC(C)(C)C1` (configuration not stated) [cyclandelate], 12.4%.
With `O=C(O)c1cccnc1Nc1cccc(C(F)(F)F)c1` [niflumic acid] the figure was 0.0993%.
With `Cc1oncc1C(=O)Nc1ccc(C(F)(F)F)cc1` [lefunamide] the figure was 1.11%; with `CN(C)/N=N/c1[nH]cnc1C(N)=O` [dacarbazine], 16.6%; with `CC[N+](C)(C)Cc1ccccc1Br` [Bretylium tosylate], 0.476%.
In the case of `C[N+](C)(C)CCCCCC[N+](C)(C)C` [Hexamethonium dichloride], the “motility inhibition on day 3” value is below 0%.
With `CN1C(C)(C)CCCC1(C)C` [pempidine tartrate] the figure was 19.8%; with `Cc1onc(-c2c(Cl)cccc2Cl)c1C(=O)N[C@@H]1C(=O)N2[C@@H]1SC(C)(C)[C@@H]2C(=O)O` [dicloxacillin sodium], below 0%; with `CCN(CC)CCOC(=O)C(Cc1cccc2ccccc12)CC1CCCO1` (configuration not stated) [nafronyl oxalate], below 0%.
Consider `CC1(C)S[C@@H]2[C@H](NC(=O)C(C(=O)O)c3ccccc3)C(=O)N2[C@H]1C(=O)O` (some centres not stated) [carbenicillin disodium], for which the “motility inhibition on day 3” value stood at 33.4%.
With `C[C@H](N)[C@H](O)c1cccc(O)c1` [metaraminol bitartrate] the figure was 2.68% and 17.8%.
With `Cc1ccccc1OCC(O)CO` (configuration not stated) [mephenesin] the figure was 4.75%.
For the compound `O=C1CN(/N=C/c2ccc([N+](=O)[O-])o2)C(=O)N1` [nitrofurantoin], the “motility inhibition on day 3” value is 66.9%.
Regarding `CC(C)(C)C(=O)C(Oc1ccc(Cl)cc1)n1ccnc1` (configuration not stated) [climbazole], the “motility inhibition on day 3” value stood at 1.88%.
With `Cc1cc(NS(=O)(=O)c2ccc(N)cc2)no1` [sulfamethoxazole] the figure was 19%; with `CN[C@@H]1[C@@H](O)[C@@H](O[C@@H]2[C@@H](O)[C@H](O[C@H]3OC(CN)=CC[C@H]3N)[C@@H](N)C[C@H]2N)OC[C@]1(C)O` [sisomicin sulfate], 19%.

(Values after the supplement of paper PMC7830784.)
